# Measurements from the supplement of paper PMC4683952.
# Counter-ions that a name gives are not always drawn. Screen size: about 1,200 compounds; about 50 (4%) showed activity. Rule as the data show it: all actives reach 1.3 or more but so do some inactives. The list shows a part of the results.
# Test system: Lgr5 (MarsCy1-Lgr5-EGFP, U2OS)
# Assay: cell-surface Lgr5 expression (SCi1 fluorescence, background-subtracted) relative to WT DMSO (fold of DMSO control); higher = more Lgr5 at the plasma membrane, active = hit call of the paper
# Details: U2OS MarsCy1-Lgr5-EGFP stable; treatment time: overnight; 16 µM; library: Johns Hopkins Clinical Compound Library
row,Structure (SMILES),cell-surface Lgr5 expression
1,CC(=O)O[C@]1(C(C)=O)CC[C@H]2[C@@H]3C[C@H](C)C4=CC(=O)CC[C@]4(C)[C@H]3CC[C@@]21C [Medroxyprogesterone acetate],inactive: 1.2
2,C[C@H]1C[C@@H]2[C@H]([C@@H](O)C[C@@]3(C)[C@H]2CC[C@]3(O)C(=O)CO)[C@@]2(C)C=CC(=O)C=C12 [Methylprednisolone (6-alpha-Methylprednisolone)],inactive: 1.12
3,CCCNCC(O)COc1ccccc1C(=O)CCc1ccccc1 (stereo unspecified) [Propafenone],inactive: 1.27
4,COc1ccccc1OCC(O)CN1CCN(CC(=O)Nc2c(C)cccc2C)CC1 (stereo unspecified) [Ranolazine dihydrochloride],inactive: 1.15
5,N.O=C(O)CC(O)(CC(=O)O)C(=O)O [Ammonium citrate (Ammonium hydrogencitrate)],inactive: 1.14
6,CCCCCCCCCCCC[N+](C)(C)Cc1ccccc1,inactive: 0.391
7,COc1ccc(C2CNC(=O)C2)cc1OC1CCCC1 (stereo unspecified) [Rolipram],inactive: 1.03
8,O=C([O-])C[NH+](CC(=O)[O-])CC(=O)[O-].O=C([O-])C[NH+](CC(=O)[O-])CC(=O)[O-].O=C([O-])C[NH+](CC(=O)[O-])CC(=O)[O-].[Na+].[Na+].[Na+].[Na+].[Na+].[Na+].[Na+].[O]=[Bi][O]C(=O)C[NH+](CC(=O)[O-])CC(=O)[O-] [Bismuth Sodium Triglycollamate (Nitrilotriacetic acid)],inactive: 1.08
9,Cc1ccc(C(C)C)cc1O [Carvacrol],inactive: 1.25
10,CCOC(=O)Oc1c(OC)cc(C(=O)O[C@@H]2C[C@@H]3CN4CCc5c([nH]c6cc(OC)ccc56)[C@H]4C[C@@H]3[C@H](C(=O)OC)[C@H]2OC)cc1OC [Syrosingopine],inactive: 0.732
11,CO/N=C(\C(=O)N[C@@H]1C(=O)N2C(C(=O)O)=C(COC(N)=O)CS[C@H]12)c1ccco1 [Cefuroxime],inactive: 0.981
12,Nc1ccc(S(=O)(=O)Nc2ccnn2-c2ccccc2)cc1 [Sulfaphenazole],inactive: 0.81
13,CC1Cc2ccccc2N1NC(=O)c1ccc(Cl)c(S(N)(=O)=O)c1 (stereo unspecified) [Indapamide],inactive: 0.929
14,CC(C)(C)[C@]1(O)CCN2C[C@H]3c4ccccc4CCc4cccc(c43)[C@@H]2C1 [Butaclamol hydrochloride (+)],inactive: 1.08
15,"Nc1ccc2cc3ccc(N)cc3nc2c1 [Proflavine hemisulfate salt hydrate, powder]",inactive: 1.06
16,CC(=O)N1C[C@H](O)C[C@H]1C(=O)O [Oxaceprol (trans-1-acetyl-4-hydroxy L-proline)],inactive: 1.16
17,Cc1cc(CC(=O)O)n(C)c1C(=O)c1ccc(Cl)cc1 [Zomepirac],inactive: 1.08
18,CC(=O)Nc1ncc([N+](=O)[O-])s1 [Nithiamide (2-Acetamido-5-nitrothiazole)],inactive: 1.3
19,CCC(C(=O)OCCN(CC)CC)c1ccccc1 (stereo unspecified) [Butetamate (Butethamate)],inactive: 1.2
20,O=P([O-])(O)O.[K+] [Potassium phosphate monobasic],inactive: 1.24
21,c1ccc(OCc2ccc(CCCN3CCOCC3)cc2)cc1 [Fomocaine],inactive: 1.23

# No new results follow: entries from further up.
row,Structure (SMILES),cell-surface Lgr5 expression
15,"Nc1ccc2cc3ccc(N)cc3nc2c1 [Proflavine hemisulfate salt hydrate, powder]",inactive: 1.06
16,CC(=O)N1C[C@H](O)C[C@H]1C(=O)O [Oxaceprol (trans-1-acetyl-4-hydroxy L-proline)],inactive: 1.16
17,Cc1cc(CC(=O)O)n(C)c1C(=O)c1ccc(Cl)cc1 [Zomepirac],inactive: 1.08
18,CC(=O)Nc1ncc([N+](=O)[O-])s1 [Nithiamide (2-Acetamido-5-nitrothiazole)],inactive: 1.3

# Remaining list, next part:

row,Structure (SMILES),cell-surface Lgr5 expression
1,"CC(=O)OC1CC2CCC1(C)C2(C)C (stereo not drawn) [Bornyl acetate, (-)-]",inactive: 1.14
2,O=C(O)C1=NN(c2ccc(S(=O)(=O)O)cc2)C(=O)C1N=Nc1ccc(S(=O)(=O)O)cc1 (stereo unspecified) [Tartrazine],inactive: 1.02
3,C[C@H]1C[C@H]2[C@@H]3CCC4=CC(=O)C=C[C@]4(C)[C@@]3(F)[C@@H](O)C[C@]2(C)[C@@]1(O)C(=O)CO,active: 1.45
4,C=C1/C(=C\C=C2/CCC[C@]3(C)[C@@H]([C@H](C)/C=C/[C@@H](O)C4CC4)CC[C@@H]23)C[C@@H](O)C[C@@H]1O [Calcipotriene],inactive: 0.796
5,Cc1ccc(Cl)c(Nc2ccccc2C(=O)O)c1Cl [Meclofenamic acid sodium salt],inactive: 1.02
6,CN(C)CCOc1ccc(/C(=C(/CCCl)c2ccccc2)c2ccccc2)cc1 [Toremifene],inactive: 0.996
7,CCN1CCN(C(=O)N[C@@H](C(=O)N[C@@H]2C(=O)N3C(C(=O)O)=C(CSc4nnnn4C)CS[C@H]23)c2ccc(O)cc2)C(=O)C1=O [Cefoperazone sodium salt],inactive: 0.882
8,CC(C(=O)O)c1ccc(N2Cc3ccccc3C2=O)cc1 (stereo unspecified) [Indoprofen],inactive: 1.24
9,CC1=Nc2ccc(Cl)cc2S(=O)(=O)N1 [Diazoxide],inactive: 0.976
10,Cc1cc(/C=C/c2ccc3cc(N(C)C)ccc3[n+]2C)c(C)n1-c1ccccc1 [Pyrvinium pamoate],inactive: 1.09
11,O=S1(=O)OC(c2ccc(O)cc2)(c2ccc(O)cc2)c2ccccc21 [Phenolsulfonphthalein (Phenol red free acid)],inactive: 1.06
12,CCCCNc1ccc(C(=O)OCCOCCOCCOCCOCCOCCOCCOCCOCCOC)cc1 [Benzonatate],inactive: 1.08
13,O=C([O-])C(=O)[O-].O=C([O-])C(=O)[O-].O=C([O-])C(=O)[O-].[Ce+3].[Ce+3] [Cerium oxalate],inactive: 1.08
14,CCCc1nc(C)c2c(=O)nc(-c3cc(S(=O)(=O)N4CCN(CC)CC4)ccc3OCC)[nH]n12 [Vardenafil],inactive: 1.08
15,Cc1cnc(NC(=O)C2=C(O)c3ccccc3S(=O)(=O)N2C)s1 [Meloxicam],inactive: 0.887
16,CC1CC(OC(=O)C(O)c2ccccc2)CC(C)(C)N1C (stereo unspecified) [Eucatropine],inactive: 1.19
17,CCN(CC)c1ccc(C(=C2C=CC(=[N+](CC)CC)C=C2)c2ccccc2)cc1.CN(C)c1ccc(C(=C2C=CC(=[N+](C)C)C=C2)c2ccc(N(C)C)cc2)cc1.Nc1ccc2cc3ccc(N)cc3nc2c1,inactive: 0.155
18,COc1cc(NS(C)(=O)=O)ccc1Nc1c2ccccc2nc2ccccc12 [Amsacrine],inactive: 0.994
19,CCN1CCN(c2cc3c(cc2F)c(=O)c(C(=O)O)cn3C2CC2)CC1 [Enrofloxacin],inactive: 1.29
20,NC(=O)c1ccccc1O [Salicylamide],inactive: 1.2
21,N.N.O=C(O)O [Ammonium carbonate],inactive: 0.969

# Another view of two compounds above.
row	Structure (SMILES)	cell-surface Lgr5 expression
9	CC1=Nc2ccc(Cl)cc2S(=O)(=O)N1 [Diazoxide]	inactive: 0.976
10	Cc1cc(/C=C/c2ccc3cc(N(C)C)ccc3[n+]2C)c(C)n1-c1ccccc1 [Pyrvinium pamoate]	inactive: 1.09

# The results go on.

row,Structure (SMILES),cell-surface Lgr5 expression
1,NC(=O)N[C@@H](CCC(=O)O)C(=O)O [Carglumic acid (N-Carbamyl-L-Glutamic Acid)],inactive: 1.08
2,COCCCC/C(=N\OCCN)c1ccc(C(F)(F)F)cc1 [Fluvoxamine maleate],inactive: 0.523
3,C[C@H](N[C@@H](CCc1ccccc1)C(=O)O)C(=O)N1CCC[C@H]1C(=O)O [Enalaprilat],inactive: 1.08
4,CN(C)[C@@H]1C(O)=C(C(N)=O)C(=O)[C@@]2(O)C(O)=C3C(=O)c4c(O)cccc4[C@@](C)(O)[C@H]3C[C@@H]12 [Tetracycline],inactive: 0.625
5,Cc1ccc(N(CC2=NCCN2)c2cccc(O)c2)cc1 [Phentolamine methane-sulfonate],inactive: 0.929
6,Cc1c(Cl)cccc1Nc1ccccc1C(=O)O [Tolfenamic acid],inactive: 1.1
7,CCCSc1ccc2[nH]c(NC(=O)OC)nc2c1 [Albendazole],inactive: 0.987
8,CO[C@H]1/C=C/O[C@@]2(C)Oc3c(C)c(O)c4c(O)c(c(/C=N/N5CCN(C)CC5)c(O)c4c3C2=O)NC(=O)/C(C)=C\C=C\[C@H](C)[C@H](O)[C@@H](C)[C@@H](O)[C@@H](C)[C@H](OC(C)=O)[C@@H]1C [Rifampicin (Rifampin)],inactive: 1.06
9,O=C[O-].[Na+] [Sodium formate],inactive: 0.903
10,CC(C(=O)O)c1ccc(CC2CCCC2=O)cc1 (stereo unspecified) [Loxoprofen],inactive: 0.974
11,CC[C@H]1OC(=O)[C@H](C)[C@@H](O[C@H]2C[C@@](C)(OC)[C@@H](O)[C@H](C)O2)[C@H](C)[C@@H](O[C@@H]2O[C@H](C)C[C@H](N(C)C)[C@H]2O)[C@](C)(O)C[C@@H](C)C(=O)[C@H](C)[C@@H](O)[C@]1(C)O [Erythromycin stearate],inactive: 0.91
12,CC(=O)OCC(=O)[C@H]1CC[C@H]2[C@@H]3CC=C4C[C@@H](O)CC[C@]4(C)[C@H]3CC[C@]12C [21-Acetoxypregnenolone],inactive: 1.06
13,CC(C)[C@@H](C)/C=C/[C@@H](C)[C@H]1CC[C@H]2C3=CC=C4C[C@@H](O)CC[C@]4(C)[C@H]3CC[C@]12C [Ergosterol],inactive: 1.02
14,"O=C1c2ccccc2C(=O)C1c1ccccc1 [Phenindione (2-Phenyl-1,3-indandione)]",inactive: 0.953
15,O=C(Cn1ccnc1[N+](=O)[O-])NCc1ccccc1 [Benznidazole (N-Benzyl-2-nitro-1H-imidazole-1-acetamide)],inactive: 0.909
16,Clc1ccc2c(c1)C(N1CCNCC1)=Nc1ccccc1O2 [Amoxapine],inactive: 0.373
17,O=C(O)CCc1nc(-c2ccccc2)c(-c2ccccc2)o1 [Oxaprozin],inactive: 0.961
18,N.O.O.O.O.O.O.O.O.O.O.O.O.O=S(=O)([O-])O.O=S(=O)([O-])[O-].[Al+3] [Aluminum ammonium sulfate dodecahydrate],inactive: 0.56
19,OC[C@@H](O)[C@@H](O)[C@H](O)[C@H](O)CO [D-Mannitol],inactive: 0.893
